PubChem BioAssay AID1259405, NCATS, 2018

Aim: 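Knock-downs that lift recombinant protein yield in hamster ovary cells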 (primary screen)
Cells: Chinese hamster CHO-K1 ovary cells with stable secreted eGFP expression
Knock-down reagent: single siRNA against mouse genes, 0.8 pmol siRNA per well (2 µl of 400 nM stock)
Timing: 3 days
Read-out: 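Per-well intracellular GFP measured by laser scanning cytometry, plus viability from ATP luminescence, each relative to plate median of non-targeting control wells, in %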
Scale: GFP, % of control: higher = more GFP per well, higher productivity; viability (ATP), % of control: higher = more viable cells (more ATP)
Call rule: 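a knock-down is called active if GFP reaches 120% or more of non-targeting control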
Shown is a random part of about 50,000 deposited reagents. Over the whole deposit, about 4,000 (8%) got an active call. 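Mouse siRNA library applied to hamster cells; one well for each siRNA.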 A number with no mark means an inactive call.

Sdk1 [SID363555152]
- GFP, % of control: 83.6
- viability (ATP), % of control: 50.4

Sdk1 [SID363563813]
- GFP, % of control: 57.3
- viability (ATP), % of control: 67.4

Sdk1 [SID363587359]
- GFP, % of control: 92.9
- viability (ATP), % of control: 104

Kif1a [SID363572201]
- GFP, % of control: 90.3
- viability (ATP), % of control: 78.9

Kif1a [SID363573961]
- GFP, % of control: 67
- viability (ATP), % of control: 106

Irx1 [SID363555289]
- GFP, % of control: 93.3
- viability (ATP), % of control: 80.9

Irx1 [SID363563950]
- GFP, % of control: 98.6
- viability (ATP), % of control: 67.1

Irx1 [SID363587496]
- GFP, % of control: 87.1
- viability (ATP), % of control: 90.5

Fmo5 [SID363572844]
- GFP, % of control: 85.4
- viability (ATP), % of control: 104

Fmo5 [SID363577420]
- GFP, % of control: 100
- viability (ATP), % of control: 72

Fmo5 [SID363580940]
- GFP, % of control: 58.4
- viability (ATP), % of control: 52.7

Cbln4 [SID363541288]
- GFP, % of control: 68
- viability (ATP), % of control: 52.2

Cbln4 [SID363555915]
- GFP, % of control: 45.2
- viability (ATP), % of control: 68.1

Cbln4 [SID363566204]
- GFP, % of control: 31.7
- viability (ATP), % of control: 38

Mrpl22 [SID363562160]
- GFP, % of control: 40.3
- viability (ATP), % of control: 50.7

Mrpl22 [SID363567298]
- GFP, % of control: 115
- viability (ATP), % of control: 64

Mrpl22 [SID363584655]
- GFP, % of control: 96.6
- viability (ATP), % of control: 65

Tsen2 [SID363546805]
- GFP, % of control: 36.9
- viability (ATP), % of control: 57.2

Tsen2 [SID363548561]
- GFP, % of control: 82.2
- viability (ATP), % of control: 108

Tsen2 [SID363560739]
- GFP, % of control: 119
- viability (ATP), % of control: 102

Atp6v1g2 [SID363569968]
- GFP, % of control: 84.3
- viability (ATP), % of control: 85.8

Atp6v1g2 [SID363577008]
- GFP, % of control: 30.1
- viability (ATP), % of control: 29.3

Atp6v1g2 [SID363578416]
- GFP, % of control: 54.9
- viability (ATP), % of control: 79

Armc9 [SID363542470]
- GFP, % of control: 135 (active)
- viability (ATP), % of control: 60.6

Armc9 [SID363551961]
- GFP, % of control: 116
- viability (ATP), % of control: 84

Armc9 [SID363559566]
- GFP, % of control: 76.8
- viability (ATP), % of control: 78.8

Otop2 [SID363553637]
- GFP, % of control: 40.9
- viability (ATP), % of control: 44

Otop2 [SID363561594]
- GFP, % of control: 45.1
- viability (ATP), % of control: 46.9

Otop2 [SID363565332]
- GFP, % of control: 184 (active)
- viability (ATP), % of control: 87.2

Otop2 [SID363589644]
- GFP, % of control: 79.4
- viability (ATP), % of control: 80.2

Otop2 [SID363589645]
- GFP, % of control: 45.7
- viability (ATP), % of control: 98.2

Otop2 [SID363589646]
- GFP, % of control: 112
- viability (ATP), % of control: 92.4

Zfp385c [SID363545671]
- GFP, % of control: 76.9
- viability (ATP), % of control: 71

Zfp385c [SID363549184]
- GFP, % of control: 42
- viability (ATP), % of control: 73.3

Zfp385c [SID363562990]
- GFP, % of control: 42.2
- viability (ATP), % of control: 53.5

Hoxb5 [SID363573547]
- GFP, % of control: 69.1
- viability (ATP), % of control: 97.1

Hoxb5 [SID363581291]
- GFP, % of control: 68.4
- viability (ATP), % of control: 64.1

Hoxb5 [SID363583755]
- GFP, % of control: 90.3
- viability (ATP), % of control: 101

Fabp6 [SID363570081]
- GFP, % of control: 92.2
- viability (ATP), % of control: 95.4

Fabp6 [SID363576417]
- GFP, % of control: 67.5
- viability (ATP), % of control: 65

Fabp6 [SID363579585]
- GFP, % of control: 63
- viability (ATP), % of control: 65.1

Dnaaf19 [SID363543362]
- GFP, % of control: 86
- viability (ATP), % of control: 97.2

Dnaaf19 [SID363552855]
- GFP, % of control: 68.2
- viability (ATP), % of control: 94.5

Dnaaf19 [SID363558703]
- GFP, % of control: 94.5
- viability (ATP), % of control: 115

Faf2 [SID363543358]
- GFP, % of control: 80.6
- viability (ATP), % of control: 79.6

Faf2 [SID363552851]
- GFP, % of control: 27.4
- viability (ATP), % of control: 41.3

Faf2 [SID363558699]
- GFP, % of control: 55.4
- viability (ATP), % of control: 65.3

Cd300lf [SID363568846]
- GFP, % of control: 73.9
- viability (ATP), % of control: 93.9

Cd300lf [SID363576238]
- GFP, % of control: 65.4
- viability (ATP), % of control: 64.7

Cd300lf [SID363579054]
- GFP, % of control: 83.3
- viability (ATP), % of control: 45.1

Map3k6 [SID363570924]
- GFP, % of control: 88.4
- viability (ATP), % of control: 89

Zic1 [SID363572375]
- GFP, % of control: 92.4
- viability (ATP), % of control: 96.4

Zic1 [SID363574135]
- GFP, % of control: 99.8
- viability (ATP), % of control: 98.5
